These are yes or no findings as the source states them, for the method shown. Binding seen in cells or lysates may run through a third protein.

Sequences of proteins named here, by UniProt entry; tags and fusion partners are left off.
UniProt P05412: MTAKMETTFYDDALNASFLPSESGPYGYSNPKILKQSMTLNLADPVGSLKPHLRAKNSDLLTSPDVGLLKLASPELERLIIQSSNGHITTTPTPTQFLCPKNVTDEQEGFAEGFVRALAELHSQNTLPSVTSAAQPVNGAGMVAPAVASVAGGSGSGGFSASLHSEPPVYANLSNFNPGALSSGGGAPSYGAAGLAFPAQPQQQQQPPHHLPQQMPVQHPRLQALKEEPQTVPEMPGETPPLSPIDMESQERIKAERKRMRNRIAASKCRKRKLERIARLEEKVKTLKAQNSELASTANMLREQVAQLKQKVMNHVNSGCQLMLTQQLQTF
UniProt P61244: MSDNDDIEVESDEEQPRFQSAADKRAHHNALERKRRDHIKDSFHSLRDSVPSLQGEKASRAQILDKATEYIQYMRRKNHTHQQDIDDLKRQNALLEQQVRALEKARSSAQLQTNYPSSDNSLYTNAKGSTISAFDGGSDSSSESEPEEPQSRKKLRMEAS

The test has as its target Jun-NV (UniProt P05412). The test can be described thus: split reporter; split Venus BiFC (NV, VN173 and CV, VC155) in co-transfected HEK293 cells, fixed 20 to 24 h after transfection, confocal imaging, ER shown by anti-calreticulin.

With Max-CV (from UniProt P61244 1-160), the binding entry is given as “no binding”.

The values are drawn from paper PMC7949057, “The cytoprotective protein MANF promotes neuronal survival independently from its role as a GRP78 cofactor” (The Journal of Biological Chemistry, 2021).
